Assay [1] addresses PTEN-induced putative kinase 1 (human (endogenous in embryonic NSCs)) (UniProt Q9BXM7). The experiment in a line: co-IP; endogenous proteins in lysate of human embryonic NSCs (some panels with sh-NC or sh-PINK1 knock-down); lysis buffer 50 mM Tris-HCl pH 7.4, 150 mM NaCl, 10% glycerol, 1 mM EDTA, 0.5% NP-40; anti-PINK1 or anti-HDAC3 antibody with protein A/G beads for 2 h; western blot. (In western blotting, separated proteins are transferred to a membrane and probed.)

Amino acid sequences for entries named in this document (tags omitted). Residues count along the entry.
UniProt Q9BXM7, residues 78-581: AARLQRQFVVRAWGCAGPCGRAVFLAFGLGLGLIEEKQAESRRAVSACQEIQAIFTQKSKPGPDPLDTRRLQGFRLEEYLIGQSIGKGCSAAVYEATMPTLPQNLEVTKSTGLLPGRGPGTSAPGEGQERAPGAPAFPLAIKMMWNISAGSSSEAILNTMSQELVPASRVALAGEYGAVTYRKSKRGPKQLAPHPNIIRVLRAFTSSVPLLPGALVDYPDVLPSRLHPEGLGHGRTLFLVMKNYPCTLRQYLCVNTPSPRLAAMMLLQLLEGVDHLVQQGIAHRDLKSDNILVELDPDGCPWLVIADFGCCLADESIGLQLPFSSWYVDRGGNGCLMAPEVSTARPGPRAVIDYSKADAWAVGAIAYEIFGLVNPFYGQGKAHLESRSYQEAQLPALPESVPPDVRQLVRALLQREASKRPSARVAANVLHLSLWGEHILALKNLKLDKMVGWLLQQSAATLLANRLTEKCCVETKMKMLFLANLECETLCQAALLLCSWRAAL
UniProt O15379: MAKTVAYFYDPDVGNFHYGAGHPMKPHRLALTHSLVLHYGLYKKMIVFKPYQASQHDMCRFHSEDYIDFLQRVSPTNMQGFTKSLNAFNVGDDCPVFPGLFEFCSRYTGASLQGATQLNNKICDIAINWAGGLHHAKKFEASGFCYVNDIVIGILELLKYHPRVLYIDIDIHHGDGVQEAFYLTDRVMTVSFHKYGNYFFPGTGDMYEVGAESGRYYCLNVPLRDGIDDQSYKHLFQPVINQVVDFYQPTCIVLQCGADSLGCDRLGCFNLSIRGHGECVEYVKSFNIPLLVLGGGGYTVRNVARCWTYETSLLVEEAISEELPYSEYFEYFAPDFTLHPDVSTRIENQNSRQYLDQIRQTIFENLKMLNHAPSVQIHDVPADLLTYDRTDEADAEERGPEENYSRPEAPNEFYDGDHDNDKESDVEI
UniProt O43524: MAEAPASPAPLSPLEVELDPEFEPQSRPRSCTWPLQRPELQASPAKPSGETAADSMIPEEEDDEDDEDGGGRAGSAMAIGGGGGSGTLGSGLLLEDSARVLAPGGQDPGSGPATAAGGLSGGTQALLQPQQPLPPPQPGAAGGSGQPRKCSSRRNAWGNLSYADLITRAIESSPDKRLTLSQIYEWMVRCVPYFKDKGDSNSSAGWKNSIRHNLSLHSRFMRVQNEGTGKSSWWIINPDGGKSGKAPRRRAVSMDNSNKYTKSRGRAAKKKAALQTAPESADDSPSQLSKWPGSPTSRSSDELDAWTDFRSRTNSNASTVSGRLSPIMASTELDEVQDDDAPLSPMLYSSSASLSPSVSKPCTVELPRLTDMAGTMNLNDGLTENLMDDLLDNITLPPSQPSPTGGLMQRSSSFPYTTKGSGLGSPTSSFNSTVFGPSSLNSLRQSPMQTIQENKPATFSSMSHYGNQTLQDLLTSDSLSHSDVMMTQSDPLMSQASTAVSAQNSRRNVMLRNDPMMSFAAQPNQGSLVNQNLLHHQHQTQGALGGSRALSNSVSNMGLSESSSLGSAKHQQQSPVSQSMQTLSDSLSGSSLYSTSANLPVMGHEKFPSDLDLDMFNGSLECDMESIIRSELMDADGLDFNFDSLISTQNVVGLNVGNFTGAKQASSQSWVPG

Assay [2] deals with phosphorylated histone deacetylase3 (human (endogenous in embryonic NSCs)) (UniProt O15379). Described as above.

No constants are given. Whether binding was seen depends on the method and setting. Binding seen in cells or lysates may run through a third protein. Some entries that bind do so weakly or less than the wild type.

On to “forkhead box O3 (from UniProt O43524 1-673)”, for which the binding entry in assay [1] and in assay [2] was “binds” throughout.

On to “histone deacetylase3 (from UniProt O15379 1-428)”, for which the binding result in assay [1] was “binds”.

Source of the values: publication PMC8329493.
